These are yes or no findings as the source states them, for the method shown. Binding seen in cells or lysates may run through a third protein. Some results given as binding are weak or reduced against the parent protein; the word gives no strength. For some of these results: Sequences can lack the tags named with a protein.
Columns and labels:
GST-NonO (mouse) = molecular target: T1, GST-NonO (mouse) (UniProt Q99K48); test: pull-down; COS-7 cells co-transfected with both plasmids (2 µg each); GST-tagged protein taken from the lysate with MagneGST particles; Western blot
T1 sequence: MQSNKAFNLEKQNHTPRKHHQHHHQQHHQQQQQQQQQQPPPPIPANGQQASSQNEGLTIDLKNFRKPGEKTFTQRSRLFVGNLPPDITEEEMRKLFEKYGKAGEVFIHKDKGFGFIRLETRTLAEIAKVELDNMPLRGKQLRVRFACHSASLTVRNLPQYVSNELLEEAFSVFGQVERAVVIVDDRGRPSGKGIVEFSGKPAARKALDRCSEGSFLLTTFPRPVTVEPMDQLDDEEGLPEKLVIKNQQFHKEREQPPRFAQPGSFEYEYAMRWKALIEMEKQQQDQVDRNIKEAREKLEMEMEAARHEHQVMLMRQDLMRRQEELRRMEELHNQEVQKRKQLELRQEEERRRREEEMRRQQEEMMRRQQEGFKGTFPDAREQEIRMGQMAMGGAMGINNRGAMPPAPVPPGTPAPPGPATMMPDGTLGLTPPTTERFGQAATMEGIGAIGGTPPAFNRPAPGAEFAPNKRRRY

GST-Rasd1 A178V (mouse) = molecular target: T2, GST-Rasd1 A178V (mouse) (UniProt O35626); test: as above
T2 sequence: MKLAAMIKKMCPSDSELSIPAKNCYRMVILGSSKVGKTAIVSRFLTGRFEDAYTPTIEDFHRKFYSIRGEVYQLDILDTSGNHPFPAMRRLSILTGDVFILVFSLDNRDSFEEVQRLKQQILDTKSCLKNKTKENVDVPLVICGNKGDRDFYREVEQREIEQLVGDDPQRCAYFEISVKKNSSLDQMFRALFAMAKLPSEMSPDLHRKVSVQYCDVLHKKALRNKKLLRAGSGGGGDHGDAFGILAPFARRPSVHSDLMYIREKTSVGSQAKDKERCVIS

GST-Rasd1 (mouse) = molecular target: T3, GST-Rasd1 (mouse) (UniProt O35626); test: as above
T3 sequence: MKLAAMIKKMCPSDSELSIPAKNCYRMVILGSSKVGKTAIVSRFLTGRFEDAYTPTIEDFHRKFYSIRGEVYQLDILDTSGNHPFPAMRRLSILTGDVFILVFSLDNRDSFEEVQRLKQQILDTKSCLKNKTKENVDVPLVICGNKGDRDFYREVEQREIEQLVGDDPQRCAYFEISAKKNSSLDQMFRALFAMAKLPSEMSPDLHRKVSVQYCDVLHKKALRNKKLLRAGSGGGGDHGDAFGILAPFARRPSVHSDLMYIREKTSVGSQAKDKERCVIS

GST-Rasd1 G81A (mouse) = molecular target: T4, GST-Rasd1 G81A (mouse) (UniProt O35626); test: as above
T4 sequence: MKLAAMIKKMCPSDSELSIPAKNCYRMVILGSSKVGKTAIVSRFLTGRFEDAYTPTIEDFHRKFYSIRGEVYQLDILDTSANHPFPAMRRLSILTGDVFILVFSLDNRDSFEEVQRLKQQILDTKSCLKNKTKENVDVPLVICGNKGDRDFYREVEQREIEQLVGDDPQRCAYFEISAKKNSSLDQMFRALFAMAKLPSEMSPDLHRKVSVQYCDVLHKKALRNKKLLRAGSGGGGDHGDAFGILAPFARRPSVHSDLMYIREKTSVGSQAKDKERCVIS

GST-Rasd1 T38N (mouse) = molecular target: T5, GST-Rasd1 T38N (mouse) (UniProt O35626); test: as above
T5 sequence: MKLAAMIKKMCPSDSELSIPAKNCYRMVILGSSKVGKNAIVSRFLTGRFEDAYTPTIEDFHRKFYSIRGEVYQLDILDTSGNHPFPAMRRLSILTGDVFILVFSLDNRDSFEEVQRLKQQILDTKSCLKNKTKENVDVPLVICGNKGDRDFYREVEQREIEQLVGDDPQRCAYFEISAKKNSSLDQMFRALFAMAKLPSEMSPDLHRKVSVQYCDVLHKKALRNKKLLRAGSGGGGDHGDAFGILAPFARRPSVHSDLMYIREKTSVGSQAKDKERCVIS

[1] = substrate: T6, NONO (endogenous, HEK293T) (human (endogenous in HEK293T)) (UniProt Q15233); test: co-IP; endogenous proteins, HEK293T lysate (NP40 lysis buffer), rabbit polyclonal anti-NMT55/p54NRB or rabbit control IgG, rProtG agarose beads; blot with anti-Rasd1
T6 sequence: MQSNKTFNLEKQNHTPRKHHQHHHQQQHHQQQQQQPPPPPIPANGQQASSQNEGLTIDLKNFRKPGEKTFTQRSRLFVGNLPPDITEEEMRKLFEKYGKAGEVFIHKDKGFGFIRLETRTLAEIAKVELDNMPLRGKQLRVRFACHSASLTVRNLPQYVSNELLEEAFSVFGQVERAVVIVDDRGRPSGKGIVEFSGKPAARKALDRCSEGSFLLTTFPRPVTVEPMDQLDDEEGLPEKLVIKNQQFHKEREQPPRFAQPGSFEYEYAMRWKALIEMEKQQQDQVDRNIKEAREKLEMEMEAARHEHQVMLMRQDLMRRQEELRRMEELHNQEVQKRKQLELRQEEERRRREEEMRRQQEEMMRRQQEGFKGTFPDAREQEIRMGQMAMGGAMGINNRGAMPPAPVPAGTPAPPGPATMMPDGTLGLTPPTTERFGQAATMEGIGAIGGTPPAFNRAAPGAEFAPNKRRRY

[2] = molecular target: T7, Rasd1 (endogenous, mouse brain) (mouse (endogenous in brain)) (UniProt O35626); test: co-IP; endogenous proteins, mouse brain lysate, goat polyclonal anti-Rasd1 or goat control IgG; blot with anti-NONO
T7 sequence: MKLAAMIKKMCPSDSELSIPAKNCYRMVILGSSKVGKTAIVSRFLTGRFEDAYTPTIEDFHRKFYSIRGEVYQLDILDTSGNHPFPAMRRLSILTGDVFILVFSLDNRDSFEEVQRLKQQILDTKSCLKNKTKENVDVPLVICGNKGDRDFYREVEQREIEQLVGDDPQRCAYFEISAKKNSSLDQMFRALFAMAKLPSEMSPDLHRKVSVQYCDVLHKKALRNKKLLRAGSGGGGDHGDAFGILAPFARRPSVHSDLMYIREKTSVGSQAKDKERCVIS

B1: HA-Rasd1 (protein, UniProt O35626 1-280)
chain: MKLAAMIKKMCPSDSELSIPAKNCYRMVILGSSKVGKTAIVSRFLTGRFEDAYTPTIEDFHRKFYSIRGEVYQLDILDTSGNHPFPAMRRLSILTGDVFILVFSLDNRDSFEEVQRLKQQILDTKSCLKNKTKENVDVPLVICGNKGDRDFYREVEQREIEQLVGDDPQRCAYFEISAKKNSSLDQMFRALFAMAKLPSEMSPDLHRKVSVQYCDVLHKKALRNKKLLRAGSGGGGDHGDAFGILAPFARRPSVHSDLMYIREKTSVGSQAKDKERCVIS
GST-NonO (mouse)
  binding: binds

B2: NonO-V5 (protein, UniProt Q99K48 1-473)
chain: MQSNKAFNLEKQNHTPRKHHQHHHQQHHQQQQQQQQQQPPPPIPANGQQASSQNEGLTIDLKNFRKPGEKTFTQRSRLFVGNLPPDITEEEMRKLFEKYGKAGEVFIHKDKGFGFIRLETRTLAEIAKVELDNMPLRGKQLRVRFACHSASLTVRNLPQYVSNELLEEAFSVFGQVERAVVIVDDRGRPSGKGIVEFSGKPAARKALDRCSEGSFLLTTFPRPVTVEPMDQLDDEEGLPEKLVIKNQQFHKEREQPPRFAQPGSFEYEYAMRWKALIEMEKQQQDQVDRNIKEAREKLEMEMEAARHEHQVMLMRQDLMRRQEELRRMEELHNQEVQKRKQLELRQEEERRRREEEMRRQQEEMMRRQQEGFKGTFPDAREQEIRMGQMAMGGAMGINNRGAMPPAPVPPGTPAPPGPATMMPDGTLGLTPPTTERFGQAATMEGIGAIGGTPPAFNRPAPGAEFAPNKRRRY
GST-Rasd1 A178V (mouse)
  binding: binds
GST-Rasd1 (mouse)
  binding: binds
GST-Rasd1 G81A (mouse)
  binding: no binding
GST-Rasd1 T38N (mouse)
  binding: binds

B3: RASD1 (endogenous, HEK293T) (protein, UniProt Q9Y272 1-281)
chain: MKLAAMIKKMCPSDSELSIPAKNCYRMVILGSSKVGKTAIVSRFLTGRFEDAYTPTIEDFHRKFYSIRGEVYQLDILDTSGNHPFPAMRRLSILTGDVFILVFSLDNRDSFEEVQRLRQQILDTKSCLKNKTKENVDVPLVICGNKGDRDFYREVDQREIEQLVGDDPQRCAYFEISAKKNSSLDQMFRALFAMAKLPSEMSPDLHRKVSVQYCDVLHKKALRNKKLLRAGSGGGGGDPGDAFGIVAPFARRPSVHSDLMYIREKASAGSQAKDKERCVIS
[1]
  binding: binds

B4: NonO (endogenous, mouse brain) (protein, UniProt Q99K48 1-473)
chain: MQSNKAFNLEKQNHTPRKHHQHHHQQHHQQQQQQQQQQPPPPIPANGQQASSQNEGLTIDLKNFRKPGEKTFTQRSRLFVGNLPPDITEEEMRKLFEKYGKAGEVFIHKDKGFGFIRLETRTLAEIAKVELDNMPLRGKQLRVRFACHSASLTVRNLPQYVSNELLEEAFSVFGQVERAVVIVDDRGRPSGKGIVEFSGKPAARKALDRCSEGSFLLTTFPRPVTVEPMDQLDDEEGLPEKLVIKNQQFHKEREQPPRFAQPGSFEYEYAMRWKALIEMEKQQQDQVDRNIKEAREKLEMEMEAARHEHQVMLMRQDLMRRQEELRRMEELHNQEVQKRKQLELRQEEERRRREEEMRRQQEEMMRRQQEGFKGTFPDAREQEIRMGQMAMGGAMGINNRGAMPPAPVPPGTPAPPGPATMMPDGTLGLTPPTTERFGQAATMEGIGAIGGTPPAFNRPAPGAEFAPNKRRRY
[2]
  binding: binds
